From paper PMC11491553, “Structural insights into the mechanotransducing mechanism of FtsEX in cell division” (MedComm, 2024)
Results are given in words; binding and its absence hold for the method and conditions named. Some binding calls cover weakened binding; strength is not graded here. For some of these results: Tags and fused reporters may be left off the sequences shown. Blank lines part the entries; values can stand above or below the binder they belong to.

How the values were obtained:
[1] = target: T1, FtsE(E163Q)X complex (E. coli K12) (UniProt P0A9R7+P0AC30); assay: cryo-EM structure; FtsE(E163Q)X-EnvC complex; EnvC(35-419) incubated with FtsE(E163Q)X at 10:1, room temperature, 1 h, recaptured by nickel affinity; 4.25 Å; both purified
T1 sequence 1: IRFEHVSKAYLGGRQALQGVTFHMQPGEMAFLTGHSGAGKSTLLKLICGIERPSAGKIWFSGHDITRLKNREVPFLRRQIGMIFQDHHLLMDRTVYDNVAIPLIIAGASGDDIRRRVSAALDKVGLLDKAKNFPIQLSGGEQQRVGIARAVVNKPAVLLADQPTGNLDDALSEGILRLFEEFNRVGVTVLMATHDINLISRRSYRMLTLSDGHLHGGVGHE
T1 sequence 2: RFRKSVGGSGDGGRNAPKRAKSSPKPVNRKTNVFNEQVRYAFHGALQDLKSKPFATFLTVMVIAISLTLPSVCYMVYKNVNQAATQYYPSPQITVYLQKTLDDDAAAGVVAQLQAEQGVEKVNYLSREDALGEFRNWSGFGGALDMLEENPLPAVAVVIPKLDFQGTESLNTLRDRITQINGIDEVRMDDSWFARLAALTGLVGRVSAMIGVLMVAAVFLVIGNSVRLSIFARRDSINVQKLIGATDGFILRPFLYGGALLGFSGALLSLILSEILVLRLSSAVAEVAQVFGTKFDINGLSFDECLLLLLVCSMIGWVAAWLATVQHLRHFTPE

FtsX (E. coli K12) = target: T2, FtsX (E. coli K12) (UniProt P0AC30); assay: as above
T2 sequence: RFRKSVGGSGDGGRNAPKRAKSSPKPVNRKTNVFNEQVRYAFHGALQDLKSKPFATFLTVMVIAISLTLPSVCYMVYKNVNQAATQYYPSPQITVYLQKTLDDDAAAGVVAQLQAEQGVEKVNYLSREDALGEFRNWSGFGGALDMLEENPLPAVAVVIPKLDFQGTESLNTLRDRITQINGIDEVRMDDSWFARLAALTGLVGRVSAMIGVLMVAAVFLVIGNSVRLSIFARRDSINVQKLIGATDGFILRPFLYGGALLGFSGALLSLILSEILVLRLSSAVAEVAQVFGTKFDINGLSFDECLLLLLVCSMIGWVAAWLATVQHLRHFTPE

[2] = target: T3, FtsE(E163Q) (E. coli K12) (UniProt P0A9R7); assay: cryo-EM structure; FtsE(E163Q)X with endogenously captured ATP, reconstituted into lipid nanodiscs (MSP1D1, E. coli polar extract, 1:2:200); 2.6 Å; both purified
T3 sequence: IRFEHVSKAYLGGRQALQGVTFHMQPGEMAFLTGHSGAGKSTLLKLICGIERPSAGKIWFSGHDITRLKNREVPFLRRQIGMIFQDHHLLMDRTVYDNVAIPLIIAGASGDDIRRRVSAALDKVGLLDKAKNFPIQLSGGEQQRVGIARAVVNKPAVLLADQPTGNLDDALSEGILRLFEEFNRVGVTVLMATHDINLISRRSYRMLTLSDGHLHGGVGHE

[3] = target: T4, EYFP–FtsE(E163Q) (E. coli) (UniProt P0A9R7); assay: FRET or BRET; purified EYFP–FtsE (acceptor) with FtsX–ECFP (donor) in a black 96-well plate; excitation 458 nm, emission 450-600 nm; both purified
T4 sequence: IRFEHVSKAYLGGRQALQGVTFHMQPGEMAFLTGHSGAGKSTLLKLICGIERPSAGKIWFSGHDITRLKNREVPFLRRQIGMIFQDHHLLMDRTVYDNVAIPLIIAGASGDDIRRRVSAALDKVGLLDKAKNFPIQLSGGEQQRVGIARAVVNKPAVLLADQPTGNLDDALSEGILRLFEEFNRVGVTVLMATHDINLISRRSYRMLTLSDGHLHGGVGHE

- binding [1]: binds
- binding (FtsX (E. coli K12)): binds
B1: EnvC(35-419) (domain or fragment, UniProt P37690 35-419)
chain: DERDQLKSIQADIAAKERAVRQKQQQRASLLAQLKKQEEAISEATRKLRETQNTLNQLNKQIDEMNASIAKLEQQKAAQERSLAAQLDAAFRQGEHTGIQLILSGEESQRGQRLQAYFGYLNQARQETIAQLKQTREEVAMQRAELEEKQSEQQTLLYEQRAQQAKLTQALNERKKTLAGLESSIQQGQQQLSELRANESRLRNSIARAEAAAKARAEREAREAQAVRDRQKEATRKGTTYKPTESEKSLMSRTGGLGAPRGQAFWPVRGPTLHRYGEQLQGELRWKGMVIGASEGTEVKAIADGRVILADWLQGYGLVVVVEHGKGDMSLYGYNQSALVSVGSQVRAGQPIALVGSSGGQGRPSLYFEIRRQGQAVNPQPWLGR

- binding [2]: binds
B2: FtsX (natural protein, E. coli K12)
chain: RFRKSVGGSGDGGRNAPKRAKSSPKPVNRKTNVFNEQVRYAFHGALQDLKSKPFATFLTVMVIAISLTLPSVCYMVYKNVNQAATQYYPSPQITVYLQKTLDDDAAAGVVAQLQAEQGVEKVNYLSREDALGEFRNWSGFGGALDMLEENPLPAVAVVIPKLDFQGTESLNTLRDRITQINGIDEVRMDDSWFARLAALTGLVGRVSAMIGVLMVAAVFLVIGNSVRLSIFARRDSINVQKLIGATDGFILRPFLYGGALLGFSGALLSLILSEILVLRLSSAVAEVAQVFGTKFDINGLSFDECLLLLLVCSMIGWVAAWLATVQHLRHFTPE
notes: FtsX, E. coli K12, integral membrane protein of FtsEX (four transmembrane helices, periplasmic loop domain); gene amplified from genomic DNA; The gene was amplified from genomic DNA and no truncation or tag on FtsX is mentioned; also called FtsX of FtsEX; TMDs and PLDs

- binding [3]: binds
B3: FtsX–ECFP (protein, UniProt P0AC30 19-352)
chain: RFRKSVGGSGDGGRNAPKRAKSSPKPVNRKTNVFNEQVRYAFHGALQDLKSKPFATFLTVMVIAISLTLPSVCYMVYKNVNQAATQYYPSPQITVYLQKTLDDDAAAGVVAQLQAEQGVEKVNYLSREDALGEFRNWSGFGGALDMLEENPLPAVAVVIPKLDFQGTESLNTLRDRITQINGIDEVRMDDSWFARLAALTGLVGRVSAMIGVLMVAAVFLVIGNSVRLSIFARRDSINVQKLIGATDGFILRPFLYGGALLGFSGALLSLILSEILVLRLSSAVAEVAQVFGTKFDINGLSFDECLLLLLVCSMIGWVAAWLATVQHLRHFTPE
